# Experimental data from PubChem BioAssay AID587 (National Center for Advancing Translational Sciences (NCATS), 2007).
# The whole screen tested about 59,000 compounds, of which about 35 (0.06%) were called active. Inconclusive results, whose numbers are uncertain, are shown with a selection of clear calls. No stated cut-off is given here; in the data, active means max dye-equivalent concentration above about 10 nM; inconclusive means between about 1.1 nM and that limit; inactive means weaker than that.
# Test: qHTS Assay for Spectroscopic Profiling in Texas Red Spectral Region
# Settings: Compound fluorescence, Texas Red channel, 547/618 nm; stronger effect = higher value
# Procedure, shortened: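 Texas Red-region profiling: compounds in 100 mM Tris pH 8.0 were read at 547/618 nm after 15 min at room temperature. Intensities were normalized against a six-point Texas Red standard series to give dye-equivalent concentration.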
row,Structure (SMILES),max dye-equivalent concentration
1,Cc1cc(NC(=O)CCN2C(=O)c3ccccc3C2=O)no1,inconclusive: 1.5 nM
2,NC(=O)c1cc2ccc(O)cc2oc1=NCc1ccccc1,inactive
3,CCN(CC)C(=O)c1sc(NC(=O)c2ccco2)c(C#N)c1C,inconclusive: 2.1 nM
4,COC(=O)C1(C)NC(c2ccc(O)cc2)C2C(=O)N(c3ccc4c(c3)OCCO4)C(=O)C21 (stereo unspecified),inconclusive: 1.9 nM
5,CC(=O)c1c(C)[nH]c(C(=O)NCc2ccccn2)c1C,inconclusive: 1.4 nM
6,COCCCn1c(=NC(=O)c2ccc3c(c2)OCO3)c(C#N)cc2c(=O)n3cccc(C)c3nc21,inconclusive: 2.6 nM
7,Nc1nc(CN2CCCCC2)cs1,inconclusive: 1.4 nM
8,CC(=O)N1CCN(c2ccc(NC(=O)COc3ccc(Cl)cc3Cl)cc2)CC1,inconclusive: 1.2 nM
9,CN1CCN(S(=O)(=O)c2ccc(NC(=O)C3CCCO3)cc2)CC1 (stereo unspecified),inactive
10,O=C(NCc1ccccn1)C1CCN(S(=O)(=O)c2cccs2)CC1,inconclusive: 1.5 nM
11,COc1ccc(NC(=O)CN2CCC(C)CC2)cc1,inactive
12,CC(=O)N1C2CCCCC2S[C@H]2CCCCC21 (stereo partly specified),inconclusive: 1.5 nM
13,CC(C)Cn1c(N)c(C(=O)COC(=O)c2cc(-c3ccco3)nc3ccccc23)c(=O)n(C)c1=O,inconclusive: 2.4 nM
14,CCN(CC)c1nc2n(c(=O)n1)CCO2,inconclusive: 1.2 nM
15,COC(=O)c1ccccc1NC(=O)c1c(O)c2c([nH]c1=O)CCCC2,inconclusive: 1.5 nM
16,COC(=O)Cc1c[nH]c2ccc(OCC(O)CNC(C)C)cc12 (stereo unspecified),inconclusive: 1.2 nM
17,COc1cc(O)c2c(O)c3c(c4c2c1[C@@]1(C4)C(C)=CCCC1(C)C)[C@H](O)[C@@]1(O)CC(=O)C(C(N)=O)=C(O)[C@]1(O)C3=O,inactive
18,CC[C@H](C)C(=O)O[C@@H]1CCC=C2C=C[C@H](C)[C@@H](CC[C@H]3C[C@@H](O)CC(=O)O3)[C@H]21,inactive
19,Cn1c(-c2ccc3c(c2)OCO3)cnc1NCc1ccc(Cl)cc1,inconclusive: 1.2 nM

# 3 entries from above, with bars between the fields:
row | Structure (SMILES) | max dye-equivalent concentration
7 | Nc1nc(CN2CCCCC2)cs1 | inconclusive: 1.4 nM
8 | CC(=O)N1CCN(c2ccc(NC(=O)COc3ccc(Cl)cc3Cl)cc2)CC1 | inconclusive: 1.2 nM
9 | CN1CCN(S(=O)(=O)c2ccc(NC(=O)C3CCCO3)cc2)CC1 (stereo unspecified) | inactive

# Next part:

row,Structure (SMILES),max dye-equivalent concentration
1,CCSc1nc(-c2ccccc2)c(C#N)c(=O)[nH]1,inconclusive: 2.2 nM
2,COc1cc(NC(=O)CN(C)S(=O)(=O)c2ccc(C)cc2)cc(OC)c1,inconclusive: 1.1 nM
3,COc1cc(OC)c(OC)cc1CN1CCN(c2ccccc2OC)CC1,inconclusive: 1.8 nM
4,CCOC(=O)c1[nH]c(C)c(/C(O)=C2\C(=O)C(=O)N(CCCN(CC)CC)C2c2cccnc2)c1C (stereo unspecified),inconclusive: 1.8 nM
5,Cc1ccc2cc(C)c(NCCO)nc2c1,inconclusive: 1.5 nM
6,O=c1[nH]c(=O)n([C@@H]2C[C@H](O)[C@H](CO)O2)cc1I,inactive
7,Cc1ccccc1C(OCC(O)CN1CCCCC1CCO)c1ccccc1 (stereo unspecified),inconclusive: 1.7 nM
8,C=CCN1C(=O)CN=C1Nc1cc(C)ccc1C,inconclusive: 1.1 nM
9,CS(=O)(=O)Nc1cccc(C(=O)CC2(O)C(=O)Nc3ccccc32)c1 (stereo unspecified),inconclusive: 1.3 nM
10,CC(=O)NCCOc1ccc2oc3ccccc3c2c1,inconclusive: 1.2 nM
11,COc1ccc(-c2nc3cnc(OC)nc3n(Cc3ccc(F)cc3)c2=O)cc1,inactive
12,CC1(C)CC(=O)c2sc(NS(C)(=O)=O)nc2C1,inconclusive: 2.3 nM
13,CCC(=O)OCc1cc2cccc(C)c2[nH]c1=O,inactive
14,CN(C)C(=O)CSc1nnc(CCN)o1,inconclusive: 2.5 nM
15,NC(=O)c1nc(N2CCOCC2)nc(N2CCOCC2)n1,inconclusive: 1.2 nM
16,Cn1c2c(c(=O)n(C)c1=O)CN(CCCN1CCOCC1)CN2,inconclusive: 1.3 nM
17,CC(=O)c1ccc2c(c1)N(CCCN(C)C)c1ccccc1S2,inconclusive: 1.5 nM
18,CCCCN(C(=O)NC(=O)Nc1ccccc1OC)S(C)(=O)=O,inconclusive: 2.2 nM
19,COc1ccc(S(=O)(=O)N(CC(=O)NCc2ccco2)c2ccccc2)cc1OC,inconclusive: 1.3 nM

row,Structure (SMILES),max dye-equivalent concentration
1,O=C(Nc1ccccc1)OCc1ccccn1,inconclusive: 1.2 nM
2,COCCNC(=O)C(C)OC(=O)c1nsc(Cl)c1Cl (stereo unspecified),inconclusive: 1.6 nM
3,Cc1ccc(CN(CC2CCCO2)C(=O)CN2C(=O)C(C(C)C)Oc3ccccc32)o1 (stereo unspecified),inconclusive: 1.1 nM
4,COC(=O)c1ccccc1NC(=O)N1CSC[C@H]1C(=O)OC,inconclusive: 1.1 nM
5,C[N+](C)(C)CCO,inconclusive: 1.1 nM
6,C=CCN1C(=O)C2(c3ccccc31)C1CCCC=C1C(C#N)=C(N)C2(C#N)C#N (stereo unspecified),inactive
7,COc1ccc(C(c2nnnn2Cc2cccs2)N2CCN(c3ccccc3)CC2)cc1OC (stereo unspecified),inconclusive: 1.1 nM
8,CC(NC(=O)c1ccc(CS(=O)(=O)Cc2ccccc2F)o1)c1ccc2c(c1)OCCO2 (stereo unspecified),inconclusive: 2 nM
9,O=[N+]([O-])c1cc(Cc2cc([N+](=O)[O-])c3cccnc3c2O)c(O)c2ncccc12,inconclusive: 1.1 nM
10,CCOC(=O)C1=C(O)C(=O)N(c2ccc(S(N)(=O)=O)cc2)C1c1ccccc1 (stereo unspecified),inconclusive: 1.2 nM
11,Cc1ccc(-c2nnc(SCC(=O)Nc3ccc4c(c3)OCCO4)n2N)cc1,inconclusive: 3.2 nM
12,O=C1NC(=O)C2(CCc3ccccc32)N1 (stereo unspecified),inconclusive: 1.2 nM
13,O=C(CNS(=O)(=O)c1cccc2nonc12)NCc1ccc(F)cc1,inconclusive: 1.1 nM
14,COc1ccc2cc(C(=O)NCc3ccco3)c(=Nc3ccc(C(=O)O)cc3)oc2c1,inconclusive: 1.2 nM
15,N#Cc1ccc(CN2CCCC3(CCN(C(=O)c4ccncc4)CC3)C2)cc1,inactive
16,CC(=O)Nc1ccc(NC(=O)c2c(C)nc3ccccn23)cc1,inconclusive: 1.3 nM
17,O=[N+]([O-])c1ccc2ncccc2c1CCc1c([N+](=O)[O-])ccc2ncccc12,inactive
18,Cc1oc2c(CN3CCCC3)c(O)ccc2c(=O)c1-c1ccc(Cl)cc1,inconclusive: 1.3 nM
